From doi:10.1101/2022.10.18.512811 (bioRxiv, 2022)
These are yes or no findings as the source states them, for the method shown. Binding seen in cells or lysates may run through a third protein. Some entries that bind do so weakly or less than the wild type. For some of these results: Sequences can lack the tags named with a protein.

How the values were obtained:
[1] = biological target: T1, C-terminally His-tagged WT NlpE expressed from pTrc99A (E. coli) (UniProt P40710); assay: cross-linking
T1 sequence (chain, lipid-modified N-terminal cysteine (Cys21)): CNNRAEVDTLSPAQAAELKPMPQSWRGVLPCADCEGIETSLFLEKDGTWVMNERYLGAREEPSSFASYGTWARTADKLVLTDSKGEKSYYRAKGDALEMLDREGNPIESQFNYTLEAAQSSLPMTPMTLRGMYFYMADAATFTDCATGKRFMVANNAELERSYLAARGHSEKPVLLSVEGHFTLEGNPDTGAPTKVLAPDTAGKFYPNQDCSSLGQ

[2] = biological target: T2, NlpE at native levels of expression (E. coli (endogenous)) (UniProt P40710); assay: co-IP
T2 sequence (chain, lipid-modified N-terminal cysteine (Cys21)): T1 sequence (chain, lipid-modified N-terminal cysteine (Cys21))

[3] = biological target: T3, over-produced NlpE (NlpE-overexpressing cells of the co-immunoprecipitation) (E. coli) (UniProt P40710); assay: co-IP
T3 sequence: T1 sequence (chain, lipid-modified N-terminal cysteine (Cys21))

[4] = biological target: T4, purified, soluble, C-terminal His×6-tagged NlpE (E. coli) (UniProt P40710); assay: pull-down
T4 sequence: T1 sequence (chain, lipid-modified N-terminal cysteine (Cys21))

Measured: binding

B1: OmpA (protein, UniProt P0A910 22-346)
chain: APKDNTWYTGAKLGWSQYHDTGFINNNGPTHENQLGAGAFGGYQVNPYVGFEMGYDWLGRMPYKGSVENGAYKAQGVQLTAKLGYPITDDLDIYTRLGGMVWRADTKSNVYGKNHDTGVSPVFAGGVEYAITPEIATRLEYQWTNNIGDAHTIGTRPDNGMLSLGVSYRFGQGEAAPVVAPAPAPAPEVQTKHFTLKSDVLFNFNKATLKPEGQAALDQLYSQLSNLDPKDGSVVVLGYTDRIGSDAYNQGLSERRAQSVVDYLISKGIPADKISARGMGESNPVTGNTCDNVKQRAALIDCLAPDRRVEIEVKGIKDVVTQPQA
binds: all assays above
